This note sets out measurements from publication PMC11109331.

By UniProt entry, the sequences of proteins in these tests, tags left out.
UniProt P11940: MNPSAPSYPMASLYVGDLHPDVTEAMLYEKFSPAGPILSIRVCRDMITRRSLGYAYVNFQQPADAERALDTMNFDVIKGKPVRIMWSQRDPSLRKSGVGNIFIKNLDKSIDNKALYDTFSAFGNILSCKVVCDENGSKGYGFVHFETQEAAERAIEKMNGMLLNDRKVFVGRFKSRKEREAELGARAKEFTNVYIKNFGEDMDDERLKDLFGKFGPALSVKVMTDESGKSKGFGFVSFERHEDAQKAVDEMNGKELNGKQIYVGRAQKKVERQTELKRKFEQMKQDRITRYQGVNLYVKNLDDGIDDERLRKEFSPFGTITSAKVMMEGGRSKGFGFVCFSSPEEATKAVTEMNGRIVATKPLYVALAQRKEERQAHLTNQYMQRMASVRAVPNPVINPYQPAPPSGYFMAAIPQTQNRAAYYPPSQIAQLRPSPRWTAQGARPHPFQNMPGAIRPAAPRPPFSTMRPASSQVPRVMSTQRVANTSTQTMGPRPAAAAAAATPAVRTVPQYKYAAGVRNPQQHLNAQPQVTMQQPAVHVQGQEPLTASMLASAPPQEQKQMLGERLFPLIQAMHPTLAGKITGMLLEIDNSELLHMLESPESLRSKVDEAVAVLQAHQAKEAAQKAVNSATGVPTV

Results are given in words; binding and its absence hold for the method and conditions named. Binding seen in cells or lysates may run through a third protein. Some binding calls cover weakened binding; strength is not graded here. Where a sequence is shown, tags or fusion partners need not be part of it.

In this experiment the target is T1, Flag-MKRN3 (UniProt Q13064).
T1 sequence: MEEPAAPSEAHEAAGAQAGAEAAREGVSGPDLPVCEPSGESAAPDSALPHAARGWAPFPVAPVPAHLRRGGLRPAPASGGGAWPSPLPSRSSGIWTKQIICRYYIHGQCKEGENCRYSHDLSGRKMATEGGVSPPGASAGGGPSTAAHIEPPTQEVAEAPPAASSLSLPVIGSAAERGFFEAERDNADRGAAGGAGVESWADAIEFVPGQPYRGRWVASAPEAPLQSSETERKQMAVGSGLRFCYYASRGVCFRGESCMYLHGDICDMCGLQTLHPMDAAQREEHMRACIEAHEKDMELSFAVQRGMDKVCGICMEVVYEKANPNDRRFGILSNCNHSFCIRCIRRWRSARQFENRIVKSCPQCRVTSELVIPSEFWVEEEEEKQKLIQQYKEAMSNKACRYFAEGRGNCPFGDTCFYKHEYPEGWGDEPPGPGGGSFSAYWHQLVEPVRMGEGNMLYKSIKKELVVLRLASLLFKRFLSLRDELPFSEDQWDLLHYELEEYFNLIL
Description: co-IP; HepG2 cells infected with lentiviruses expressing Flag-MKRN3, with or without circDDX21 overexpression or circDDX21 shRNA; immunoprecipitation with anti-Flag antibody.

For PABPC1 (from UniProt P11940 1-636), the binding result is “binds”.
